Source: ChEMBL document CHEMBL1156784, “The permeation of amphoteric drugs through artificial membranes--an in combo absorption model based on paracellular and transmembrane permeability” (J Med Chem, 2010)

Experiment: Permeability at pH 6.5 by PAMPA method

CCn1cc(C(=O)O)c(=O)c2cc(F)c(N3CCN(C)CC3)cc21 [PEFLOXACIN]
Papp: 23 ×10⁻⁶ cm/s
